Results as given in US7550465B2, “Pyrido[3,2-e]pyrazines, their use as inhibitors of phosphodiesterase 10, and processes for preparing them” (Elbion GmbH, priority 2006, dated 2009).
Some results were stated once for a whole list of compounds, not compound by compound.

System: MK-801-induced hyperactivity and stereotyped sniffing
Test: MK-801-induced psychosis (hyperactivity and stereotyped sniffing)
Format: in vivo, rat
Settings: p.o., 30 min before test (Example 30: 60 min); female Wistar rats; MK-801 0.1 mg/kg i.p. 10 min before; activity recorded 1 h; vs MK-801 control
Method: Female Wistar rats (Crl: (WI) BR, Charles River, Sulzfeld, Germany) weighing 150 to 180 g were used for the MK-801-induced psychosis. Animals were housed under standard conditions in groups of five on a 12 h light/dark cycle (light on at 0600 h) with ad libitum access to food (Pellets, ssniff M/R 15, Spezialdiät GmbH, Soest/Westfalen) and
Hydroxyethylcellulose was solved in distilled water.
MK-801 was solved in saline so that an administration volume of 0.5 ml/100 g was reached. The suspensions and solution were placed on a magnetic stirrer before and during dosing procedures.
The behaviour induced by the NMDA antagonist MK-801 is generally accepted as a rat model of psychosis. […]
Locomotor activity of the rats was recorded by the MotiTest Apparatus (TSE, Bad Homburg, Germany). […] Horizontal movements were recorded by 32 infrared photocells arranged along the bottom of each wall of the arena. The activity [sec] was measured by the computer program “ActiMot” (TSE, Bad Homburg, Germany).
Stereotyped sniffing was scored by the experimenter every five minutes for one hour (12 intervals) according to the method described by Andiné et al. (1999). […]
At the beginning of the test the rats were placed in the centre of the squared arena of the MotiTest apparatus. Behaviour of the rats was recorded for one hour. […]
Results were analysed by one way analysis of variance (ANOVA). […]

In the case of `CCCc1nc(C)c2c(C#N)nc3ccc(OC)nc3n12` [Example 29, 4-cyano-8-methoxy-3-methyl-1-propyl-imidazo[1,5-a]pyrido[3,2e]pyrazine], the “dose significantly reversing MK-801-induced hyperactivity” value is reported as no less than 7.5 mg/kg.
